Source: patent publication US20250340575A1, “4-AMINOPYRROLO[2,1-F][1,2,4]TRIAZINES AND PREPARATION AND USES THEREOF” (Biosplice Therapeutics, Inc., priority 2024, published 2025)

Target: recombinant DYRK1A kinase (Homo sapiens, UniProt Q13627)
Assay: DYRK1A kinase assay (Ser/Thr 18 peptide Z-lyte FRET)
Details: DYRK1A 0.25 μg/mL, ATP 15 μM, Ser/Thr peptide 18 4 μM, one hour at room temperature, 11-point dose-response from 10 μM

IC50: 1.2 nM
SMILES: CC(=O)N1CC[C@@H](Nc2nc(N)c3c(-c4ccc5ncn(CC(F)(F)F)c5n4)ccn3n2)C(F)(F)C1

The match of structure and compound is tentative.
